Results taken from US10588608B2, “Sampling systems and related materials and methods” (Progenity Inc., priority 2016, dated 2020).

Columns and labels:
IgA = experiment: ELISA assay compatibility of preservatives: IgA detection; design: species or system human; conditions: in SDJ; FIGS. 46, 48
IgM = experiment: ELISA assay compatibility of preservatives: IgM detection; design: species or system human; conditions: in SDJ; FIGS. 47, 49

SMILES: Cc1ccc(S(=O)(=O)N[C@@H](Cc2ccccc2)C(=O)CCl)cc1 [TPCK, N-p-Tosyl-L-phenylalanine chloromethyl ketone]
- effect on IgA detection by ELISA (IgA): no impact
- effect on IgM detection by ELISA (IgM): no impact
